Percent effect of library compounds

Source: ChEMBL document CHEMBL3988442, “University of Dundee, Small-Polar-MMV Screening Library” (2021).

A: 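Phenotypic screen: M. tuberculosis growth, cholesterol and DPPC medium, 4 days; the read-out is not stated. Compounds at 50 µM. The record gives no direction; compounds that gave an IC50 in retests scored well above the rest, so higher reads as more growth inhibition. About 69,000 compounds were tested under these conditions; 0.54% (about 370) showed 50% or more at least once.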
B: 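Whole-cell growth test on Mycobacterium tuberculosis, read after 3 days in glucose-containing 7H9 medium; the read-out is not stated. Compounds at 50 µM. Higher reads as more growth inhibition (inferred: compounds with an IC50 in retests scored well above the rest). About 69,000 compounds were tested under these conditions; 1.1% (about 760) showed 50% or more at least once.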

Values are the deposited “Percent Effect”, in %.
How 0% and 100% were set is not recorded. Most values in the screen are low, and negative values occur.
The compounds are a random part of those screened.
Two or more numbers in one place are separate tests of the same structure; such repeats can differ widely.

| SMILES | A | B |
|---|---|---|
| `O=C(O)C(F)(F)F.[H][C@@]12CCN(S(=O)(=O)C3CC3)[C@@]1([H])CCN2C(=O)c1ccccn1` | -39.15% | 5.163% and -2.273% |
| `CC1CN(C)c2ccccc2CN1C(=O)c1cc[nH]c(=O)c1` (stereo not given) | -2.126% and -2.049% | -2.19% |
| `O=C(COc1ccc(-c2ccccc2)nc1)NCC1CC1` | 17.13% | 33.58% |
| `Cc1nn(C)cc1-c1cc(C(=O)N2CCc3ncc(Cl)cc3C2)no1` | 7.102% and 0.8128% | -1.207% |
| `CCN(CCCNCc1c(C)nn(C)c1N(C)C)S(C)(=O)=O` | -13.45% | -14.96% |
| `NC(=O)c1cc2c(nc1Oc1ccc(CN3CCCC3)cc1F)CCC2` | -2.544% | 5.587% |
| `O=C(O)C(F)(F)F.[H][C@@]12CCN(CC3CCOCC3)[C@@]1([H])CCN2C(=O)c1cccn1C` | -22.27% | -1.465% and -27.88% |
| `CNc1cc(C)nc(C2COCCN2CCc2ccccc2)n1` (stereo not given) | 10.57% and 11.16% | 21.38% |
| `CC(=O)NCC(Cc1cccc(F)c1)n1cccc1` (stereo not given) | 19.63% | 8.141% and 65.8% |
| `Cc1nc(CN2CCCN(CC(=O)N(C)C(C)(C)C#N)CC2)no1` | 0.7133% | -0.915% and 1.341% |
| `O=C(O)C(F)(F)F.O=C(O)C(F)(F)F.[H][C@]12CCN(c3ncccn3)[C@@]1([H])CC[C@H](COCc1cccnc1)O2` | -9.061% | -12.61% |
| `Cc1nnc(NC(=O)CN2CCc3c(nc(C4CC4)n3C)C2)s1` | -8.899% | -9.288% |
| `COCc1noc(CCNc2nc(CC3CC3)nc3c2CCNCC3)n1` | 6.432% | 5.66% |
| `CC(C)c1nc(CN2CCN(CC(O)c3ccccc3)CC2)no1` (stereo not given) | -1.288% | 4.293% |
| `CCn1nc(C)c2nnn(CC(=O)Nc3c(C)cccc3C)c(=O)c21` | -19.76% | -20.44% |
| `Cc1ccc(CSc2ncc(Br)c(C(=O)O)n2)cc1` | 4.095% | 28.46% |
| `CCCSc1nc(O)c(CC)c(=O)n1-c1ccccc1` | 17.07% | 13.8% |
| `Cc1ccc(N2CCCC(NCC(=O)Nc3cc(C)nn3C)C2)nn1` (stereo not given) | 16.1% | 18.16% |
| `Cc1ccc(C(=O)N2Cc3c(CN4CCCCC4)nn(C)c3C2)cc1C.O=C(O)C(F)(F)F` | -22.95% | -0.04759% |
| `O=C(CCNc1ncccn1)NCc1cccc(OC(F)F)c1` | -7.878% | -34.45% |
| `COCc1nn(C(C)C)c2c1CCN(Cc1ccsc1)C2` | -13.34% | -34.58% |
| `O=C(O)C(F)(F)F.[H][C@@]12CCN(C3CCC3)C[C@]1([H])OCCN(Cc1ccc(OC)cc1)C2=O` | -0.7354% | -22.44% |
| `O=C(O)C(F)(F)F.c1csc(CN2CCn3c(Cn4cncn4)cnc3C2)c1` | -9.857% and -6.729% | 2.887% |
| `O=C(Nc1ccccc1Cn1cccn1)N1CCC(N2CCCC2)C1` (stereo not given) | -4.951% | 8.705% |
| `Cc1nccn1CCCN1CCCC(c2ccccc2)C1` (stereo not given) | -5.248% | 5.333% |
| `Cc1nnc(N2CCCC(C(=O)c3cccc(Cl)c3)C2)o1` (stereo not given) | -7.61% | -8.642% |
| `OCc1ccccc1CNCC1CNc2ccnn2C1` (stereo not given) | -13.93% | -0.7405% |
| `CC(C)(C)c1nc(NS(=O)(=O)c2ccc(F)cc2)no1` | -8.929% | -2.279% |
| `[H][C@]12CCN(C(=O)c3cccc(F)c3)C[C@@]1([H])OCCN(c1ncccn1)C2` | 16.75% and 7.551% | -8.453% |
| `COCc1nc(C(=O)OCC2CCN(c3ccccc3)C2)cs1` (stereo not given) | 6.241% | 44.53% |
| `CCOc1cncc(NCCc2nnc3ccccn23)n1` | -17.79% and -0.7577% | -40.07% |
| `CC(C)c1cc(CN(C)C(=O)CN2CCCCC2=O)no1` | -30.54% | -27.08% |
| `[H][C@@]12CNC[C@]1([H])CN(C(=O)c1cc(-c3ccco3)nc3c(Cl)cccc13)C2` | 4.349% | 9.168% |
| `CC(C)OCCOCc1cccc(NC(=O)NCc2ccccn2)c1` | -2.302% | 0.8129% |
| `O=C(O)CSc1nnc(-c2cn[nH]c2)n1-c1ccccc1C(F)(F)F` | -12.41% | -0.432% |
| `CC(C)c1ccccc1OCCNC(=O)N1CCC2(CC1)OCCO2` | 6.05% | 5.701% |
| `c1ccc(CN2CCC(NCCc3ccc4c(c3)CCO4)CC2)nc1` | 1.165% | 24.58% and -0.2334% |
| `COc1ccc2c(c1)C1(CCN(Cc3cccnc3)CC1)N(C)CC2.O=C(O)C(F)(F)F.O=C(O)C(F)(F)F.O=C(O)C(F)(F)F` | -3.269% | -18.88% and 4.126% |
| `N#Cc1cccnc1N1CCC(c2nc(C(F)(F)F)c[nH]2)CC1` | 2.174% | 1.918% |
| `O=C1CSC(c2ccc3c(c2)OCO3)c2cnn(C3CCCCC3)c2N1` (stereo not given) | -3.824% | -5.925% |
| `Cc1nnn2c1COC(CNCc1nccs1)C2.O=C(O)C(F)(F)F` (stereo not given) | 2.919% | -10.2% |
| `CC(C)N(Cc1ccccc1)C(=O)c1cc(C2CCCN2C)ccn1` (stereo not given) | -3.716% | 1.004% |
| `CN(C)C(=O)C(C)(C)c1ccc2c(c1)OCCO2` | -6.494% | 11.74% |
| `Cc1nn(C)c2nc(N3CCC(C(O)c4nccn4C)CC3)sc12` (stereo not given) | -0.07033% and -3.317% | 3.886% |
| `CCOC(=O)CN(CC(F)(F)F)C(=O)c1nc(C)n2ccccc12` | 14.1% | 2.526% and -12.14% |
| `CN(C)c1ccc(C(=O)N2CCCC2c2ccc(Cl)cc2)nn1` (stereo not given) | -8.491% | 101.4% and -6.403% |
| `Cc1nc(CNC(C)c2cccc(S(=O)(=O)N(C)C)c2)no1` (stereo not given) | 1.292% | -3.897% and -7.051% |

Once more, the final 6:

For CC(C)N(Cc1ccccc1)C(=O)c1cc(C2CCCN2C)ccn1 (stereo not given) the result was A: -3.716%; B: 1.004%.
For CN(C)C(=O)C(C)(C)c1ccc2c(c1)OCCO2 the result was A: -6.494%; B: 11.74%.
For Cc1nn(C)c2nc(N3CCC(C(O)c4nccn4C)CC3)sc12 (stereo not given) the result was A: -0.07033% and -3.317%; B: 3.886%.
For CCOC(=O)CN(CC(F)(F)F)C(=O)c1nc(C)n2ccccc12 the result was A: 14.1%; B: 2.526% and -12.14%.
For CN(C)c1ccc(C(=O)N2CCCC2c2ccc(Cl)cc2)nn1 (stereo not given) the result was A: -8.491%; B: 101.4% and -6.403%.
For Cc1nc(CNC(C)c2cccc(S(=O)(=O)N(C)C)c2)no1 (stereo not given) the result was A: 1.292%; B: -3.897% and -7.051%.